From PMC2613389
These are yes or no findings as the source states them, for the method shown. In cells and extracts the contact can be indirect. Some results given as binding are weak or reduced against the parent protein; the word gives no strength. Where a sequence is shown, tags or fusion partners need not be part of it.

Sequences of proteins named here, by UniProt entry; tags and fusion partners are left off. A change or cut given only in a name is not applied to a line headed by its entry. A line that says so, or that is headed by a name, gives the form on record, which may keep a tag or linker. Residues count along the entry.
UniProt P30679: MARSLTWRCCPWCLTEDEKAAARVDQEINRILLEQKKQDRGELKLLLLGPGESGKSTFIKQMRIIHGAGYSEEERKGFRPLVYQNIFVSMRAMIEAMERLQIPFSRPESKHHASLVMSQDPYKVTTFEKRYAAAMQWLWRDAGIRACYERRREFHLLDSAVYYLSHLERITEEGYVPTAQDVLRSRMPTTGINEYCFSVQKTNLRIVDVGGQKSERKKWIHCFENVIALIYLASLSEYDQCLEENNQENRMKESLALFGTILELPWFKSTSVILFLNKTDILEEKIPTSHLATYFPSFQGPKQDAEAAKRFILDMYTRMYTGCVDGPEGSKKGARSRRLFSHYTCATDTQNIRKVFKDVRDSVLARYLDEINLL
Gα16 2A mutant (Gly259-Thr260 → Ala) (P30679, form named): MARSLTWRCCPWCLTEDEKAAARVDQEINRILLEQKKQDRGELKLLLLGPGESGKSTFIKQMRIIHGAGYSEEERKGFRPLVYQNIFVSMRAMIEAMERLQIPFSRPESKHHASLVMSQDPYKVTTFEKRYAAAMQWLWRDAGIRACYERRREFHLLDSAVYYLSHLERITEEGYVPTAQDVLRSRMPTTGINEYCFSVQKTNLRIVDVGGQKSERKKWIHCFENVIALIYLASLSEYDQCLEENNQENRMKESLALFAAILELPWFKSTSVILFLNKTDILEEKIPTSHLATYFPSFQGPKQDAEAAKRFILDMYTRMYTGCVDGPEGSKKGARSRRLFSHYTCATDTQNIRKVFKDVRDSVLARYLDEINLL
Gα16 2A-QL mutant (Gly259-Thr260 → Ala, Gln212 → Leu) (P30679, form named): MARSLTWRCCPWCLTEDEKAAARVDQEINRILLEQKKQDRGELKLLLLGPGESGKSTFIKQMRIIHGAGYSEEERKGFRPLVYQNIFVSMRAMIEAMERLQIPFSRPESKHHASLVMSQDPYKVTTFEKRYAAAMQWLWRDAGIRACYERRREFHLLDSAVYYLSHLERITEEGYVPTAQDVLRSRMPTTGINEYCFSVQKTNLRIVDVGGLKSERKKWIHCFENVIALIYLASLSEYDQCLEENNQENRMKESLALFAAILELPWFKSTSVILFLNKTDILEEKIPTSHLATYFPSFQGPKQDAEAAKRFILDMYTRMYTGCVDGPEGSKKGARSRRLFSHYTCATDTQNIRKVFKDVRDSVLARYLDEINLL
Gα16 3A mutant (cluster 1 Asn-Gln-Glu in switch III → Ala) (P30679, form named): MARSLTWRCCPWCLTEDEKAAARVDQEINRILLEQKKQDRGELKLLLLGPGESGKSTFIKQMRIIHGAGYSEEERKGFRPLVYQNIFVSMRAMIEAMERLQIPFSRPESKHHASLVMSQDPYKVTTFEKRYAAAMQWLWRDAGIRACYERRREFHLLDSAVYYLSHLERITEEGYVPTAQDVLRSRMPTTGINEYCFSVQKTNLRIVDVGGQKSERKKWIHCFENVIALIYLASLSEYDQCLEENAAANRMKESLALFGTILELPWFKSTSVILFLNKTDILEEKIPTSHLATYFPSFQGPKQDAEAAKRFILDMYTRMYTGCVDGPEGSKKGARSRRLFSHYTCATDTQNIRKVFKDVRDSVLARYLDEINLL
Gα16 3A-QL mutant (cluster 1 Asn-Gln-Glu → Ala, Gln212 → Leu) (P30679, form named): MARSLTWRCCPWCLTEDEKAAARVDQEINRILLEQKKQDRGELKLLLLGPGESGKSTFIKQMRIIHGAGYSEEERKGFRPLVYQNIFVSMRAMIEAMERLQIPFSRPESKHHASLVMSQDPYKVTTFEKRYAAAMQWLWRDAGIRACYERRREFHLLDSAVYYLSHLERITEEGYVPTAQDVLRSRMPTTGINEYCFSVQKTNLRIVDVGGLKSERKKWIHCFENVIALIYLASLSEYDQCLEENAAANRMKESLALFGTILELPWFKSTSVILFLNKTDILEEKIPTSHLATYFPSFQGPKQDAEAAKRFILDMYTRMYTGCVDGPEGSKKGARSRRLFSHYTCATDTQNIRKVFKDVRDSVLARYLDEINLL
Gα16 5A mutant (all 5 residues of both clusters → Ala) (P30679, form named): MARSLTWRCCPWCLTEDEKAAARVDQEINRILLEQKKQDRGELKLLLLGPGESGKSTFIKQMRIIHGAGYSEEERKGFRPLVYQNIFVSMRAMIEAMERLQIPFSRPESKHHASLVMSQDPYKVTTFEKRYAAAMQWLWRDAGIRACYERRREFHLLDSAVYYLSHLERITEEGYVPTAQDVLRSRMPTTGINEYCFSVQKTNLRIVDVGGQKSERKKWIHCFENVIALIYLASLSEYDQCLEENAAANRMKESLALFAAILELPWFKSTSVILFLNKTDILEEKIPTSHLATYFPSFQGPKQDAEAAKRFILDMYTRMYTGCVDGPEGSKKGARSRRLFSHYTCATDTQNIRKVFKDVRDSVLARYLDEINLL
Gα16 5A-QL mutant (all 5 residues of both clusters → Ala, Gln212 → Leu) (P30679, form named): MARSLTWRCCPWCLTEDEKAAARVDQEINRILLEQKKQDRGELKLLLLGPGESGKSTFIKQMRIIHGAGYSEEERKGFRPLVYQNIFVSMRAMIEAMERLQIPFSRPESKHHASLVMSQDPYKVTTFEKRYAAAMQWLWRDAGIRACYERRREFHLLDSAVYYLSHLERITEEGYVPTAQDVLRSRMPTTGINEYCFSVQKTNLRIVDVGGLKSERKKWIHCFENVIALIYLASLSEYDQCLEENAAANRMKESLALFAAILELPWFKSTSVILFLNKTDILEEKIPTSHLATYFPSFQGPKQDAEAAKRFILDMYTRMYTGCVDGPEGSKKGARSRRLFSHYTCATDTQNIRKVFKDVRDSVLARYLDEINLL
Gα16QL (constitutively active mutant, Gln212 → Leu) (P30679, form named): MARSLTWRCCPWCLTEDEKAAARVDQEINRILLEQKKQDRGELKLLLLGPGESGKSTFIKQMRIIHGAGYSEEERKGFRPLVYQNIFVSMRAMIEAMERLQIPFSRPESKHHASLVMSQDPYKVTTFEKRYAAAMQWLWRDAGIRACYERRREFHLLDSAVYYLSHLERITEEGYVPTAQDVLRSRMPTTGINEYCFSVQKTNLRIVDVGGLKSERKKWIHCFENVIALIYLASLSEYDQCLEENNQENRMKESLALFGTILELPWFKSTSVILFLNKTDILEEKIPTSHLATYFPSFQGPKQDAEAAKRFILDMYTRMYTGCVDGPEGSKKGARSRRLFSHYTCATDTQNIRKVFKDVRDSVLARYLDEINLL

Target: T1, Flag-tagged full-length tetratricopeptide repeat 1 (TPR1) (human) (UniProt Q99614)
T1 sequence: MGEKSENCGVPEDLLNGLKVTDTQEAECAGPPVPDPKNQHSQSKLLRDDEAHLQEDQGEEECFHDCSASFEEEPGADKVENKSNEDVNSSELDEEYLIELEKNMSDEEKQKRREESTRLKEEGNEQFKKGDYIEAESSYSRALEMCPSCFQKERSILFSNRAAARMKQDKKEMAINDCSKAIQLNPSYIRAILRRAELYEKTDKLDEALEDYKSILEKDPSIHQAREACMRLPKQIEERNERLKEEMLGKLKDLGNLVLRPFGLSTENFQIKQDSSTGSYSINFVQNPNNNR
Assay: co-IP; HEK293 cells co-transfected with Flag-TPR1 and Gα16 constructs; cells treated with 0.5 mM DSP cross-linker for 15 min and lysed in RIPA buffer; IP with anti-FLAG affinity agarose (4°C overnight) or anti-Gα16 antiserum and protein G-agarose; Western blot

binding	Substance
binds	Gα16 2A mutant (Gly259-Thr260 → Ala) (from UniProt P30679 1-374)
binds	Gα16 3A mutant (cluster 1 Asn-Gln-Glu in switch III → Ala) (from UniProt P30679 1-374)
binds	Gα16 5A mutant (all 5 residues of both clusters → Ala) (from UniProt P30679 1-374)

Further lines, the substance ahead of its results:

Substance	binding
Gα16 2A-QL mutant (Gly259-Thr260 → Ala, Gln212 → Leu) (from UniProt P30679 1-374)	binds
Gα16 3A-QL mutant (cluster 1 Asn-Gln-Glu → Ala, Gln212 → Leu) (from UniProt P30679 1-374)	binds
Gα16 5A-QL mutant (all 5 residues of both clusters → Ala, Gln212 → Leu) (from UniProt P30679 1-374)	binds
Gα16 (wild type) (from UniProt P30679 1-374)	binds
Gα16QL (constitutively active mutant, Gln212 → Leu) (from UniProt P30679 1-374)	binds
